The chains are these.
B1: Acetyl-CoA synthetase (protein, UniProt C4LUV9 1-713)
chain: MQFEPLFNPKSVAVIGASDRKESVGYAVMNNMIKGGYKGNLYPVGRKPELFGKKCYAKIGQIEEKVDLAVIAIPAKFVPGVCIECGEAGVKGLIIITAGFAEAGEEGKKMCIEIQATCQKYNMRMIGPNCLGIINPRDGVNASFASVMPEAGGVAFISQSGALCTAILDWAANQHVGFSYFVSIGSSIDTDYADLFEFFAKDPKVTSILMYIESIKDAKKFVLRAREFAADKPIILLKAGKSSEGAAAAMSHTGSLAGNDAVYDAVFDRCGCIRVDSICDLWDCAHVLATQNIPQNNRLCIITNAGGPGVISTDRLVSVHGHLAKLSESTMNELNAFLSPFWSHSNPVDVLGDATAGVYQKTLDIVIKDPQIDGVVVVLTPQAMTDPVAVAKSLVEHGPYQKPVLASWMGQSEVEAGVKILEEGKIPNFETPERAVTAFGYIMRHPDIAAKLKEIPKYLDVQVDYEGAKKLIADVVADGRTTFTEYEGKMMFSKYGIPIKGMAKASTEDEAVAEAMKIGTPVVMKILSPDIMHKTDVGGVKVKLTTEEEIRKAYRDIMTSVKEKKPEARIHGVLLEKMVGFKYECIIGCKKDPLFGPVIVFGMGGVTVELYKDTNIALPPIGLQEADRLIDGTKISKLLRGYRGMPACDVEGLKKILVQFSKMIMDFPEISEVDINPLAVSYEEFLVLDAKIVLDKNMIGKEVPKYSHLVIQP
B2: Fe-ADH domain-containing protein (protein, UniProt Q24857 1-384)
chain: MTMLNFTYYNPVRLIYGKGSLDEIEKQHLIPEDARIMMTYGGGSIKKNGVYEEVLKHIKPIVEFGGIEPNPSHETCIKAIKIAKENKINFLVAVGGGSIIDATKYIALGMEHTYSDDPYDICLKGGKFKVNPAQAKIGVVLTIPATGSETNCWGVISRHADKLKLPFNNESVFPTWSIVDPCFTMSLPDNQIRNGLVDSFVHCIEQYIGNYHLNPVVEAETEGVMRTIIGVSHKTLENHQDYQARITFCYAATVALNMSLLCGVTLCGGAHAVGHELTSYYGLAHGETLAITTPGVMRFNKEKNAKKLIQMGEQVFGIKNSTPEAAIEATEKWFKSIGMKTRLSEWGKGKEEFETIARKFEGNPAGAHKDIDYKGCLQILNDIY
B3: Phosphoglycerate kinase (protein, UniProt C4M192 1-415)
chain: MGFTKKSLDQIDVKDKRVFMRVDFNVPMEKGKITNTKRIDATIPSIQYCLDHGCKAVVLASHLGRPDGHVVPELTLKPVAEKLEEILKHKVIFLNDCVGEEVIKACANPAPGSVILLENVRFHPEEEGSSIVDGKKVKADPEKVKEFREQLTKLGDVYVNDAFGTVHRAHSTMVGVNLSPKVSGFLVKKELGYFAKAFDHINRPYLGILGGAKVADKIPIINNFLEKVDQLIICGGMAYTFLAASKNMKIGKSLFDASKVEMCKELLAKAEAKKVEILLPFDFVACDKFGEDANTQICTLEEGIPEGWEGVDCGPKTSALWREKILAAKTIMWNGPCGVFEIDKFSAGTKALCEAVAAATQAGVLTIVGGGDTPTALKKFGLDKQVSHISTGGGASLELLQGLPLPGVANLDDAE
B4: EhRabC3 (protein, UniProt A0A8U0WP91 1-208)
chain: MSRGNYDHLFKILIIGESGVGKTAIMQRFCENTFEPVYISTVGVDFKPKVIKVGNKTVKMQLWDTAGQDRFRNITASYYRGTQGVLIVYDVTDRASFDKVSSWFTEVRDRTENDPPVIILVGNKTDLMDHAAVKQEAVEQLARQLGGVQTFTCSAKDGSGIDEVFNALTQAIISKVGCAPGKKEDPSVVQLGGKGGSQPAQKSEGGCC
B5: ADF-H domain-containing protein (protein, UniProt C4LVG4 1-138)
chain: MAGIQLADEVTSVYNDFKLSHKYRYIVFKMNDGMTEVVVEKTAEKNATYDDFLKDLPEKSARYAVYDLEYDTPEGLRQKIIFYLWTPEGCKIREKMLYSATKATIKQALVGLSAEIQATDAGELNLDEVIAKVKTISK

The values below come from article PMC8964110.

No constants are given. Whether binding was seen depends on the method and setting. Binding seen in cells or lysates may run through a third protein. These calls come from enrichment with a bait or labelling near it, and not all partners need be listed.

For this assay, the target named is EhVps23 (E. histolytica (endogenous in HM1:IMSS trophozoites)). The assay is described as follows: affinity purification with mass spectrometry; immunoprecipitation with α-EhVps23 antibody and protein G-agarose from trophozoite lysates (10 mM Tris-HCl, 50 mM NaCl, protease inhibitors, freeze-thawing; pre-cleared with Protein-G, 2 h at 4°C); precipitate separated by gel electrophoresis, LC-ESI-HDMSE.
In the case of B1, the binding result is given as “binds”.
The result for B2 reads “binds”.
In the case of B3 it was “binds”.
In the case of B4 it was “binds”; in that of B5, “binds”.
